Data reported in patent US10821115B2, “Compounds that inhibit Mcl-1 protein” (priority 2017, dated 2020).
Structures were worked out from names or drawings and are uncertain.

The chains behind the UniProt entries cited, without tags or fusion partners. Residues count along the entry.
UniProt Q07820, 171-327 limits assumed: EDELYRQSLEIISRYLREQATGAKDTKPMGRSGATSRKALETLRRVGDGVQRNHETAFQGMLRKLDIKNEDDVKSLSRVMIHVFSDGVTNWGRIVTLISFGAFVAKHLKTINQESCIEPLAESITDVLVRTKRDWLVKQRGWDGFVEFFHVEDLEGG

What was measured:
[1] = tested on: human multiple myeloma cell line, OPM-2; experiment: Cell viability assay (OPM-2 10 FBS), CellTiter-Glo; type: cell-based; conditions: read-out: OPM-2 10% FBS IC50 IP, OPM-2 cells, 16 h incubation
[2] = target: recombinant human Mcl-1 (residues 171-327) / Bim interaction (Homo sapiens (Human), UniProt Q07820); conditions: read-out: Mcl-1 HTRF IC50; 0.1 nM Mcl-1(171-327), 0.05 nM biotin-Bim (51-76)

| SMILES | IC50 [1] | IC50 [2] |
| --- | --- | --- |
| CO[C@@]1(CN2CCN3CCN(C(C)C)CC3C2)/C=C/C[C@H](C)[C@@H](C)S(=O)(=O)NC(=O)c2ccc3c(c2)N(C[C@@H]2CC[C@H]21)C[C@@]1(CCCc2cc(Cl)ccc21)CO3 (stereo partly shown) | 120 nM | 0.18 nM |
| CO[C@@]1(CN2CCN([C@H](CCO)CC(=O)O)CC2)/C=C/C[C@H](C)[C@@H](C)S(=O)(=O)NC(=O)c2ccc3c(c2)N(C[C@@H]2CC[C@H]21)C[C@@]1(CCCc2cc(Cl)ccc21)CO3 | 574 nM |  |
| CO[C@@]1(CN2CCN([C@H]3CCOC(=O)C3)CC2)/C=C/C[C@H](C)[C@@H](C)S(=O)(=O)NC(=O)c2ccc3c(c2)N(C[C@@H]2CC[C@H]21)C[C@@]1(CCCc2cc(Cl)ccc21)CO3 | 359 nM |  |
